Data taken from PMC9433436.
The exact form of at least one protein or probe is not confirmed. Weaker means in comparison with the reference protein, sequence or condition of that experiment. Protein sequences can lack the tags named with them.

Biological target: T1, RNase P protein C5 (rnpA) (Escherichia coli) (UniProt P0A7Y8)
T1 sequence (looked up, limits assumed): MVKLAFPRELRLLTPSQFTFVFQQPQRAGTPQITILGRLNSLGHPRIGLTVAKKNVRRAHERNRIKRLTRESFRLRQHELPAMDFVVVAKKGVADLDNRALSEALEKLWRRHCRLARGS
Experiment: EMSA dissociation kinetics
Settings: with P RNA, 5 mM Ca2+, 500 nM unlabeled ptRNA_GG chase, about half dissociates rapidly (ES), remainder stays bound; EMSA: 90 mM Tris-HCl pH 8, 100 mM NaCl, 3 mM CaCl2, 7% glycerol, 0.005% reduced Triton X-100; 37 C 3 min then ice 15 min; 7% native gel kept <25 C; recombinant protein; label: 5' 32P (EMSA); probe letters rebuilt from the primers and the genome

## GAAUUCUGGGGCUACGUAGCUCAGUUGGUUAGAGCACAUCACUCAUAAUGAUGGGGUCACAGGUUCGAAUCCCGUCGUAGCCACCA [ptRNA_GG]
  binding result: binds more weakly
